Measured values reported in patent US20090304687A1, “METHODS OF USING CD40 BINDING AGENTS” (Seattle Genetics , Inc., priority 2005, published 2009).
Positions count from the first letter of the chain named. Results are given in words; binding and its absence hold for the method and conditions named. Some binding calls cover weakened binding; strength is not graded here.

Protein sequences, listed by entry. Tags and fused reporters are not part of them. Residues count along the entry.
UniProt P25942, residues 21-193: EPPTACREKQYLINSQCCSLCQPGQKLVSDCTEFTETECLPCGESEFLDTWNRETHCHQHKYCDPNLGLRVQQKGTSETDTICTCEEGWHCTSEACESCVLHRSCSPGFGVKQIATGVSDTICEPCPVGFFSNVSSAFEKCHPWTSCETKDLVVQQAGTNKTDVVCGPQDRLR

B1: hu sgn-14 (antibody, V domains shown)
VH: EVQLVESGGGLVQPGGSLRLSCAASGYSFTGYYIHWVRQAPGKGLEWVARVIPNNGGTSYNQKFKGRFTLSVDNSKNTAYLQMNSLRAEDTAVYYCAREGIYWWGQGTLVTVS
VL: DIQMTQSPSSLSASVGDRVTITCRSSQSLVHSNGNTFLHWYQQKPGKAPKLLIYTVSNRFSGVPSRFSGSGSGTDFTLTISSLQPEDFATYYCSQTTHVPWTFGQGTKVEIKR
B2: hu sgn-19 (antibody, V domains shown)
VH: B1 VH
VL: B1 VL with Y92F
B3: hu sgn-27 (antibody, V domains shown)
VH: B1 VH with N55Q
VL: B1 VL with Y92F
B4: hu sgn-18 (antibody, V domains shown)
VH: B1 VH with F68A
VL: B1 VL with Y92F
B5: hu sgn-22 (antibody, V domains shown)
VH: B1 VH with N55A
VL: B1 VL
B6: hu sgn-23 (antibody, V domains shown)
VH: B1 VH with N55Q
VL: B1 VL
B7: hu sgn-26 (antibody, V domains shown)
VH: B1 VH with N55A
VL: B1 VL with Y92F

Each binder was assayed against CD40 immobilized on microassay plates (UniProt P25942 21-193, limits assumed) (assay: serially diluted antibody on CD40 immobilized on microassay plates).
Protocol: Antibodies constructed using these variant light and heavy chain variable domains were analyzed for binding activity. Each antibody was diluted to equivalent concentrations, and then serially diluted. The diluted antibodies were assayed for binding to CD40 immobilized on microassay plates.

Row | binding | Binder
1 | binds | B1
2 | binds | B2
3 | binds | B3
4 | binds | B4
5 | binds | B5
6 | binds | B6
7 | binds | B7
